Some of the results follow. Values are raw readings; no control value is given beside them.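 In the initial screen, polymyxin B was used at a concentration that permeabilizes Salmonella's outer membrane but not its inner membrane. Maximum growth was set by DMSO wells with or without polymyxin B. Since plates varied, data were ranked per plate, and compounds giving the lowest OD600 advanced as hits.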
Tested on: Salmonella enterica serovar Typhimurium SL1344
Experiment: bacterial growth OD600 after 18 h with compound and polymyxin B; higher = more bacterial growth (less inhibition)
Details: 50 µM, Mueller-Hinton broth

SMILES | bacterial growth OD600 (polymyxin B 0.75 µg/mL) | bacterial growth OD600 (polymyxin B 1 µg/mL)
O=C(Cc1ccc(Cl)cc1)N1CCC(C2(c3ccccn3)NC(=O)N(CC3CCCO3)C2=O)CC1 (stereo not given) | 0.846 | 
COCC1CCCCN1C(=O)c1oc2ccc(C)cc2c1C (stereo not given) |  | 0.699
Cc1cccc(N2CCN(C(=O)c3cn(C4CC4)cc(C(=O)NCc4ccccc4)c3=O)CC2)c1C | 0.002 | 
COc1ccc(S(=O)(=O)NCC2CCCN(C(=O)CSc3ccccc3)C2)cc1 (stereo not given) |  | 0.929
CSc1cccc(CN2CC[C@@H](N3CCN(CCc4ccccc4)CC3)[C@H](O)C2)c1 |  | 1.17
COc1cc(OC)c2nc(-c3cc4c(c(OC)c3)OCCN(C(=O)Cn3nc(C)cc3C)C4)cc(C)c2c1 | 0.841 | 
CCn1cc(CNC2CCCN(Cc3ccccc3F)C2)c(C)n1 (stereo not given) | 0.995 | 
Cc1cccc(C)c1OCc1cc(C(=O)N2CCN(C)C(=O)[C@@H]2C)no1 |  | 0.952
O=C(CCc1nnc(CCc2c[nH]c3ccccc23)o1)N1CCCCCC1 |  | 0.935
Cn1cc(CCC(=O)NC2CC(=O)N(CCc3cccc(Cl)c3)C2)cn1 (stereo not given) |  | 0.891
Cc1nc(N2CCCCCCC2)ncc1C(C)NC(=O)c1ccnn1C (stereo not given) |  | 0.873
OCCOc1cccc(CNC2CCCN(CC3CCCCC3)C2)c1 (stereo not given) |  | 1.13
COc1cc(-c2nc(CN(CCO)Cc3ccccc3)c(C)o2)ccc1F |  | 0.686
Cc1c(CC(=O)NCC2CC2)c2c(n1Cc1ccccc1)CCCC2=O |  | 1.22
COc1cccc2c1OCC(CN(C)CC1CCN(Cc3ccc(C)o3)CC1)=C2 |  | 0.834
O=C(c1cc(F)c(F)cc1F)N1CCCC(N2CCN(c3ccc(F)cc3)CC2)C1 (stereo not given) |  | 0.908
Cc1noc(C)c1CC(=O)N1CCCC(Nc2ccc(F)c(F)c2)C1 (stereo not given) |  | 0.937
CCN(Cc1nccn1C)C(=O)c1ccc(N2CCCC(OC)C2)nc1 (stereo not given) |  | 1.01
CCC1C(=O)NCCN1C(=O)CCc1nnc(Cc2cccc(C(F)(F)F)c2)o1 (stereo not given) |  | 0.855
COc1cccc(CCC2CCCN(C(=O)c3csc(C)n3)C2)c1 (stereo not given) | 0.872 | 

Fetched by structure from the list above (2):
SMILES | bacterial growth OD600 (polymyxin B 0.75 µg/mL) | bacterial growth OD600 (polymyxin B 1 µg/mL)
Cc1nc(N2CCCCCCC2)ncc1C(C)NC(=O)c1ccnn1C (stereo not given) |  | 0.873
COc1cccc2c1OCC(CN(C)CC1CCN(Cc3ccc(C)o3)CC1)=C2 |  | 0.834

Reference: the supplement of paper PMC12889115
